Data as given in US20190352689A1.
Results are given in words; binding and its absence hold for the method and conditions named. For part of these data: Binding seen in cells or lysates may run through a third protein. Some entries that bind do so weakly or less than the wild type. Where a sequence is shown, tags or fusion partners need not be part of it.

The chains behind the UniProt entries cited, without tags or fusion partners. Where a name states a change or a piece, a line headed by the entry shows the natural chain unless it says otherwise.
UniProt Q14764: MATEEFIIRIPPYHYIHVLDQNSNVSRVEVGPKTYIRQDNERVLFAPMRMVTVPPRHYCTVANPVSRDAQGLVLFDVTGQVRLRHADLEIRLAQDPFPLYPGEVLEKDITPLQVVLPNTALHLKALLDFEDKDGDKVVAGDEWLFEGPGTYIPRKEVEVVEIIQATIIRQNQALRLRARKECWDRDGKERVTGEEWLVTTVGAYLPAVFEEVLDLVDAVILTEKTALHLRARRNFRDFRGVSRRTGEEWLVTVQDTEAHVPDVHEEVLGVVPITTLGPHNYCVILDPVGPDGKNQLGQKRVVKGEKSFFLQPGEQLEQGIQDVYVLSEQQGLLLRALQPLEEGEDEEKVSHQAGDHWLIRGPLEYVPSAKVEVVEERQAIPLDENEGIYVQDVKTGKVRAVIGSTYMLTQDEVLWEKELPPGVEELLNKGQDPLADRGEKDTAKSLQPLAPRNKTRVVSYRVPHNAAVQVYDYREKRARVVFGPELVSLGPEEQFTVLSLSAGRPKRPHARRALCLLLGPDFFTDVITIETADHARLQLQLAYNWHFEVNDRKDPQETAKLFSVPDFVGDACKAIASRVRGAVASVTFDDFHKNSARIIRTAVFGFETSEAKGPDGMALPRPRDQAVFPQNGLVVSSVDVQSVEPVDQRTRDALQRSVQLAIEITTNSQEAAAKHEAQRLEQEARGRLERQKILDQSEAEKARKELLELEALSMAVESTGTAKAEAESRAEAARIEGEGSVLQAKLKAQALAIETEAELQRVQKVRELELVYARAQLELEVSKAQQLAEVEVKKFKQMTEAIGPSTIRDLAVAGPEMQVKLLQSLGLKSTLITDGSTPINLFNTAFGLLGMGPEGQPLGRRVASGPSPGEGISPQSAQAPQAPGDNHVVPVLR

Assays:
[1] = target: yeast vaults (recombinant vault particles assembled from human MVP expressed in Pichia pastoris) (human) (UniProt Q14764); test: co-purification with vaults, SDS-PAGE with Coomassie staining
[2] = target: insect vaults (recombinant vault particles of human MVP produced in Sf9 insect cells) (human) (UniProt Q14764); test: average number of mINT passenger molecules per vault particle, Sf9-produced vaults compared with yeast vaults
[3] = target: yeast vaults (recombinant vault particles assembled from human MVP expressed in Pichia pastoris) (human) (UniProt Q14764); test: mINT fusion packaging into vaults from yeast host cells
[4] = target: yeast vaults (recombinant vault particles assembled from human MVP expressed in Pichia pastoris) (human) (UniProt Q14764); test: co-purification, SDS-PAGE with Coomassie staining and TEM (FIG. 5)
[5] = target: insect vaults (recombinant vault particles of human MVP produced in Sf9 insect cells) (human) (UniProt Q14764); test: mINT fusion packaging, comparison of yeast and insect vaults
[6] = target: yeast vaults (recombinant vault particles assembled from human MVP expressed in Pichia pastoris) (human) (UniProt Q14764); test: as above
[7] = target: insect vaults (recombinant vault particles of human MVP produced in Sf9 insect cells) (human) (UniProt Q14764); test: mINT fusion packaging into vaults from Sf9 host cells
[8] = target: yeast vaults (recombinant vault particles assembled from human MVP expressed in Pichia pastoris) (human) (UniProt Q14764); test: FPLC co-purification, SDS-PAGE, EM (FIG. 10)
[9] = target: yeast vaults (recombinant vault particles assembled from human MVP expressed in Pichia pastoris) (human) (UniProt Q14764); test: packaging by mixing lysates, FPLC purification, SDS-PAGE, EM

Measured: binding

B1: mCherry-INT (mCherry fused to the INT domain of VPARP) (protein, UniProt Q9UKK3 1563-1724, looked up, not shown: large carriers)
chain: CIQHWQDAVPWTELLSLQTEDGFWKLTPELGLILNLNTNGLHSFLKQKGIQSLGVKGRECLLDLIATMLVLQFIRTRLEKEGIVFKSLMKMDDASISRNIPWAFEAIKQASEWVRRTEGQYPSICPRLELGNDWDSATKQLLGLQPISTVSPLHRVLHYSQG
binds: all assays above
